Paper PMC4757516
These are yes or no findings as the source states them, for the method shown. Binding seen in cells or lysates may run through a third protein. Some binding calls cover weakened binding; strength is not graded here.

The chains behind the UniProt entries cited, without tags or fusion partners.
UniProt Q13526: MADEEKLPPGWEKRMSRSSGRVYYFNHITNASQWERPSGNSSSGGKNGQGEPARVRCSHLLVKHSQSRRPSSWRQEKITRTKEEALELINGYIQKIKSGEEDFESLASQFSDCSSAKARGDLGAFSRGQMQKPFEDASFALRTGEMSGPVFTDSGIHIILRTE

Biological target: T1, endogenous FOXM1 (human (endogenous in Colo829)) (UniProt Q08050)
T1 sequence: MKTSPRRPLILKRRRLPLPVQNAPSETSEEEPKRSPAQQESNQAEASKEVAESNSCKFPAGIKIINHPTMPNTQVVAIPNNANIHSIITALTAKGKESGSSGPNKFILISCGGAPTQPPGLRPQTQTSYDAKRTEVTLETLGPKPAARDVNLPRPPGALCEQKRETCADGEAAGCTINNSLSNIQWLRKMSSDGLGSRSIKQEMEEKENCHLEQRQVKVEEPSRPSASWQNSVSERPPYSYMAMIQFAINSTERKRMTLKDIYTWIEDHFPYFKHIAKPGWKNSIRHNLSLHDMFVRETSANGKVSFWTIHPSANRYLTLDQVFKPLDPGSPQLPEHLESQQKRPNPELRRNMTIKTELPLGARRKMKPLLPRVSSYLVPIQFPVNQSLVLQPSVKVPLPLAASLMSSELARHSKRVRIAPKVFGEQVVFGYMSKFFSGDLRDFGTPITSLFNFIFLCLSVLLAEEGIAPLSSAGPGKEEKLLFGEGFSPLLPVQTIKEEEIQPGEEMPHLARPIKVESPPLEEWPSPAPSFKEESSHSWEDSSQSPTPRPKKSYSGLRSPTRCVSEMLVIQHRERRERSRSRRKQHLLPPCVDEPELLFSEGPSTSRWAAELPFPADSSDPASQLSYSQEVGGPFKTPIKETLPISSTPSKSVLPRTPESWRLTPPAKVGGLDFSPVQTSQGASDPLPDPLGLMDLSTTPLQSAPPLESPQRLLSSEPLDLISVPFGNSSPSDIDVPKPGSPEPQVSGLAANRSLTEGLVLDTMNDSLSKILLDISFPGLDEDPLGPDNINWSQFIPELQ
Experiment: co-IP; endogenous proteins, Colo829 lysates, IP with an antibody against FOXM1 or control IgG; lysis buffer 20 mM Tris-HCl pH 8.0, 1% NP40, 10% glycerol, 1 mM MgCl2, 1 mM EDTA, 150 mM NaCl

Substance: endogenous Pin1 (from UniProt Q13526 1-163) (enzyme)
- binding: binds
